Laboratory results: article PMC7397856

By UniProt entry, the sequences of proteins in these tests, tags left out. Where a name states a change or a piece, a line headed by the entry shows the natural chain unless it says otherwise.
UniProt Q9NZ71: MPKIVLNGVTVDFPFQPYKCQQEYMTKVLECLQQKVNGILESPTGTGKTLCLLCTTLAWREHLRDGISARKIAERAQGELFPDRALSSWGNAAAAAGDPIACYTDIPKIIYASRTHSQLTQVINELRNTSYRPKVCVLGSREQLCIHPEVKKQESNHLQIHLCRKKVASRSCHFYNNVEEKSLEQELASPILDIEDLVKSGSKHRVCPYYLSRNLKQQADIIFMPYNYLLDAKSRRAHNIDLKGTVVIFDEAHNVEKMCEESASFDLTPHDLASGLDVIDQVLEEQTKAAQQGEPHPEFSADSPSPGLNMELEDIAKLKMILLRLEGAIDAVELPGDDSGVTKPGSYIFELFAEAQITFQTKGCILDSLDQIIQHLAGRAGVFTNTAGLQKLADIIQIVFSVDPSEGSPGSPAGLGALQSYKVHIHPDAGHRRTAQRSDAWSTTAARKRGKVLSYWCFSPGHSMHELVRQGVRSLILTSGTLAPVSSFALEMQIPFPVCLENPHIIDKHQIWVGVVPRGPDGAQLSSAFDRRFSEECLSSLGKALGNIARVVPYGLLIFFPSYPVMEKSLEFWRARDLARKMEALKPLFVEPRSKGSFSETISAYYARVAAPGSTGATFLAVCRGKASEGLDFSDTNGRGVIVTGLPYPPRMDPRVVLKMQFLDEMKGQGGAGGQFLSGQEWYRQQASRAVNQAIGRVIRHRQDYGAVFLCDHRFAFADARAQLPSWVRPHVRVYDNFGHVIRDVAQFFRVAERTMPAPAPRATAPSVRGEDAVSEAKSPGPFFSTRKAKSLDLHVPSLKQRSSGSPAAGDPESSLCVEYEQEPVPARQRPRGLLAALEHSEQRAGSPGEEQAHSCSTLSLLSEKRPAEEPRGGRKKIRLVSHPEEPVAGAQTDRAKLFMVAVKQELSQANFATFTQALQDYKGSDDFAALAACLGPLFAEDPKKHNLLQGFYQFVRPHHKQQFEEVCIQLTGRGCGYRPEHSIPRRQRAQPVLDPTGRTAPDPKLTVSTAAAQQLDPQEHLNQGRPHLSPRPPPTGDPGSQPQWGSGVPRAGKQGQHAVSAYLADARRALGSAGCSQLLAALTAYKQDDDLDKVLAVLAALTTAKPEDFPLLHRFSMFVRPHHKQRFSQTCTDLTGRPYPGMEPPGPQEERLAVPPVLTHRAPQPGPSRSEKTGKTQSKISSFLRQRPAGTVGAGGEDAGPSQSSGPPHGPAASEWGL
UniProt P28340: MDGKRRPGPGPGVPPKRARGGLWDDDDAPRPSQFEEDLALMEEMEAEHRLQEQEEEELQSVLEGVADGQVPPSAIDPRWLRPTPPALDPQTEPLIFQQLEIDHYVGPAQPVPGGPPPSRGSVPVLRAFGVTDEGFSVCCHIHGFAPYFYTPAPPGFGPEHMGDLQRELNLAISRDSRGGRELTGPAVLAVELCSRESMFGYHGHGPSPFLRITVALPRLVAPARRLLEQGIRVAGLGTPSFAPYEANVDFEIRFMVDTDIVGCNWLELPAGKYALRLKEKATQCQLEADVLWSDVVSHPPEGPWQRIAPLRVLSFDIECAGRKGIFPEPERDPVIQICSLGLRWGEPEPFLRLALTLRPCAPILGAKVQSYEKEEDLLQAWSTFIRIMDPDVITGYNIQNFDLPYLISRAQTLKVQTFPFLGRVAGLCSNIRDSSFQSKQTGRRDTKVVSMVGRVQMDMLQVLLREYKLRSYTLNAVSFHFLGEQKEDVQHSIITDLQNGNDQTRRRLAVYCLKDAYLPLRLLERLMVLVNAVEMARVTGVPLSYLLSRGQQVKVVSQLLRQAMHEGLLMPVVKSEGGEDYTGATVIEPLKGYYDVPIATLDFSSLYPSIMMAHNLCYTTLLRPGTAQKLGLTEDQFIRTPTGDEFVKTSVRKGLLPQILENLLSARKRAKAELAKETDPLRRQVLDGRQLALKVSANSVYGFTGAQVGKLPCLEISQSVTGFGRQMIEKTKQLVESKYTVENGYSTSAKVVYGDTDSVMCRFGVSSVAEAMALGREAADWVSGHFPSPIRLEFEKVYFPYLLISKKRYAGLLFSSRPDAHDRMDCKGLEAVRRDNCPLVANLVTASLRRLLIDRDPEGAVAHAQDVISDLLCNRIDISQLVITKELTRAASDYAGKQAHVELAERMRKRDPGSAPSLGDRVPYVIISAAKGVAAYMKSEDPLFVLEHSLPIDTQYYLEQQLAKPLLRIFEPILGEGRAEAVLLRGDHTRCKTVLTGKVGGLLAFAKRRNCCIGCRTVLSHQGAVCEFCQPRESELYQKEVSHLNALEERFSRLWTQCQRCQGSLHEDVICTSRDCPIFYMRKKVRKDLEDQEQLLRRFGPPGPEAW

B1: HA-Poldip3 (protein, UniProt Q9BY77 1-421)
chain: MADISLDELIRKRGAAAKGRLNARPGVGGVRSRVGIQQGLLSQSTRTATFQQRFDARQKIGLSDARLKLGVKDAREKLLQKDARFRIKGKVQDAREMLNSRKQQTTVPQKPRQVADAREKISLKRSSPAAFINPPIGTVTPALKLTKTIQVPQQKAMAPLHPHPAGMRINVVNNHQAKQNLYDLDEDDDGIASVPTKQMKFAASGGFLHHMAGLSSSKLSMSKALPLTKVVQNDAYTAPALPSSIRTKALTNMSRTLVNKEEPPKELPAAEPVLSPLEGTKMTVNNLHPRVTEEDIVELFCVCGALKRARLVHPGVAEVVFVKKDDAITAYKKYNNRCLDGQPMKCNLHMNGNVITSDQPILLRLSDSPSMKKESELPRRVNSASSSNPPAEVDPDTILKALFKSSGASVTTQPTEFKIKL
B2: endogenous Poldip3 (protein, UniProt Q9BY77 1-421)
chain: MADISLDELIRKRGAAAKGRLNARPGVGGVRSRVGIQQGLLSQSTRTATFQQRFDARQKIGLSDARLKLGVKDAREKLLQKDARFRIKGKVQDAREMLNSRKQQTTVPQKPRQVADAREKISLKRSSPAAFINPPIGTVTPALKLTKTIQVPQQKAMAPLHPHPAGMRINVVNNHQAKQNLYDLDEDDDGIASVPTKQMKFAASGGFLHHMAGLSSSKLSMSKALPLTKVVQNDAYTAPALPSSIRTKALTNMSRTLVNKEEPPKELPAAEPVLSPLEGTKMTVNNLHPRVTEEDIVELFCVCGALKRARLVHPGVAEVVFVKKDDAITAYKKYNNRCLDGQPMKCNLHMNGNVITSDQPILLRLSDSPSMKKESELPRRVNSASSSNPPAEVDPDTILKALFKSSGASVTTQPTEFKIKL
B3: POLD3 (protein, UniProt Q15054 1-466)
chain: MADQLYLENIDEFVTDQNKIVTYKWLSYTLGVHVNQAKQMLYDYVERKRKENSGAQLHVTYLVSGSLIQNGHSCHKVAVVREDKLEAVKSKLAVTASIHVYSIQKAMLKDSGPLFNTDYDILKSNLQNCSKFSAIQCAAAVPRAPAESSSSSKKFEQSHLHMSSETQANNELTTNGHGPPASKQVSQQPKGIMGMFASKAAAKTQETNKETKTEAKEVTNASAAGNKAPGKGNMMSNFFGKAAMNKFKVNLDSEQAVKEEKIVEQPTVSVTEPKLATPAGLKKSSKKAEPVKVLQKEKKRGKRVALSDDETKETENMRKKRRRIKLPESDSSEDEVFPDSPGAYEAESPSPPPPPSPPLEPVPKTEPEPPSVKSSSGENKRKRKRVLKSKTYLDGEGCIVTEKVYESESCTDSEEELNMKTSSVHRPPAMTVKKEPREERKGPKKGTAALGKANRQVSITGFFQRK

Key:
[1] = biological target: Flag-RTEL1 (full-length) (human) (UniProt Q9NZ71); experiment: co-IP; HEK293T transfected with Flag-RTEL1 (full-length or deletion constructs) or mock; Flag immunoprecipitation with anti-Flag beads (3xFlag peptide elution for the deletion constructs); immunoblot for endogenous partners
[2] = biological target: GFP-RTEL1 WT (human) (UniProt Q9NZ71); experiment: co-IP; HEK293T cotransfected with HA-Poldip3 and GFP or GFP-RTEL1 (WT or mutant), 24 h; GFP immunoprecipitation, immunoblot with HA and GFP antibodies; also with DNA nuclease treatment of lysates, and after hydroxyurea or camptothecin
[3] = biological target: endogenous RTEL1 (human (endogenous in U2OS and HEK293T)) (UniProt Q9NZ71); experiment: co-IP; endogenous proteins; U2OS cells harvested in EBC buffer, lysates treated with DNases and RNases, precleared; immunoprecipitation with IgG or RTEL1 antibody; release with glycine-HCl buffer
[4] = biological target: Flag-RTEL1 deletion construct: RTEL1 N terminus harboring the helicase domain (human); experiment: co-IP; HEK293T transfected with Flag-RTEL1 (full-length or deletion constructs) or mock; Flag immunoprecipitation with anti-Flag beads (3xFlag peptide elution for the deletion constructs); immunoblot for endogenous partners

Molecule | binding [1] | binding [2] | binding [3] | binding [4]
POLD1 (from UniProt P28340 1-1107) | binds |  |  | 
B1 |  | binds |  | 
B2 | binds |  | binds | binds
B3 | binds |  |  | 

No constants are given. Whether binding was seen depends on the method and setting. In cells and extracts the contact can be indirect. Binding calls can cover weak binding; strength is not graded here. For part of these data: Tags and fused reporters may be left off the sequences shown.
